# Where a name gives a salt, the structure may show the parent alone. The list shows a part of the results. This is a noisy data set.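 Yeast growth was read as optical density at 600 nm. The two-hybrid strains grew without histidine, so growth needed the Pex3–Pex19 binding; a compound counted as trypanosome-selective if it cut growth of the trypanosome-pair strain by more than 65% and the human-pair strain by less than 65%.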
# Columns and labels:
# [1] = tested on: Saccharomyces cerevisiae HF7c pdr5Δ; test: general growth inhibition of yeast HF7c pdr5Δ in -Leu -Trp medium, relative to DMSO; higher = stronger general growth inhibition; settings: 100 µM; 24 h
# [2] = tested on: human PEX3-PEX19 interaction (yeast two-hybrid); test: growth inhibition of yeast two-hybrid strain reporting HsPex3-HsPex19 interaction, relative to DMSO; higher = stronger inhibition of human Pex3-Pex19 interaction / growth; settings: 100 µM; 24 h; 3-aminotriazole 10 mM
# [3] = tested on: T. brucei Pex3-Pex19 interaction (yeast two-hybrid); test: growth inhibition of yeast two-hybrid strain reporting TbPex3-TbPex19 interaction, relative to DMSO; higher = stronger inhibition of T. brucei Pex3-Pex19 interaction / growth; settings: 100 µM; 24 h
Compound,general growth inhibition [1],growth inhibition [2],growth inhibition [3]
"Cn1c(=O)c2[nH]c(C3CCCC3)nc2n(C)c1=O [8-Cyclopentyl-1,3-dimethylxanthine]",21.1%,27.1%,54.5%
O=C(Nc1ccc2[nH]ncc2c1)C1CCC1 [Rhodblock 6],29.4%,38.2%,54.4%
"C=CCn1c(=O)c2c(nc(-c3ccc(S(=O)(=O)O)cc3)n2C)n(C)c1=O [1-Allyl-3,7-dimethyl-8-p-sulfophenylxanthine]",12.1%,7.23%,36.4%
CN(C(=O)CCCOc1ccc2[nH]c(=O)ccc2c1)C1CCCCC1 [Cilostamide],48%,49.2%,56.3%
Nc1nc2c(ncn2[C@@H]2O[C@H](CO)[C@@H](O)[C@@H]2O)c(=O)[nH]1 [Ara-G hydrate],56.9%,49.2%,70.5%
CC(C)NC[C@H](O)COc1ccc(CC(N)=O)cc1 [S(-)-Atenolol],33.6%,24.5%,54.5%
O=C(CCCCCN1CCN(c2ccccc2-c2ccccc2)CC1)NC1CCCc2ccccc21 (stereo not given) [LP 12 hydrochloride hydrate],81.8%,78%,76.8%
CCc1ccc2c(-c3cccc(Cl)c3)nc(=O)n(CC)c2n1,64.1%,49.1%,59%
Cn1cnc2c1c(=O)[nH]c(=O)n2C [Theobromine],55.2%,50.9%,63.7%
CCCC(CCC)C(=O)O[C@H]1C[C@H]2CC[C@@H](C1)[N+]2(C)C [Anisotropine methyl bromide],4.46%,3.81%,25.4%
O=C(NOCC1CC1)c1cc(Br)c(F)c(F)c1Nc1ccc(I)cc1Cl,32.8%,24.1%,37.4%
N=C(N)NC(=O)c1nc(Cl)c(N)nc1N [Amiloride hydrochloride],38.8%,40.7%,56.4%
Clc1ccc(C(c2ccc(Cl)cc2)[n+]2ccn(CC(OCc3ccc(Cl)cc3Cl)c3ccc(Cl)cc3Cl)c2)cc1 (stereo not given) [Calmidazolium chloride],79.2%,78.5%,77.1%
CCCCNc1cc(C(=O)O)cc(S(N)(=O)=O)c1Oc1ccccc1 [Bumetanide],22.1%,28.7%,34.9%
COC(=O)C1=C(C)NC(C)=C(C(=O)OCCN(C)Cc2ccccc2)C1c1cccc([N+](=O)[O-])c1 (stereo not given) [Nicardipine hydrochloride],39.4%,33.4%,51.8%
C=CCN1CCc2c(cc(O)c(O)c2Cl)C(c2ccccc2)C1 (racemic) [(±)-Chloro-APB hydrobromide],19.5%,22.1%,36.9%
CC(=O)Oc1cc(C(F)(F)F)ccc1C(=O)O [Triflusal],54.3%,47.1%,69.9%
Cc1cc(NC2CCCCC2)nc(-n2nc(C)cc2C)n1,32.5%,33.1%,61.7%
Nc1ccc(S(=O)(=O)Nc2ccnn2-c2ccccc2)cc1 [Sulfaphenazole],43.4%,38.7%,66.6%
Brc1c(NC2=NCCN2)ccc2nccnc12,48.7%,52.6%,74.9%
CC(CCc1ccccc1)NCC(O)c1ccc(O)c(C(N)=O)c1 (stereo not given) [Labetalol hydrochloride],49.8%,38.9%,65.8%
CCCOc1ccccc1-c1nc2[nH]nnc2c(=O)[nH]1 [Zaprinast],46.5%,44.7%,72.8%

# Grouped by structure, the compounds so far containing nitrogen in an aromatic ring.
Compound,general growth inhibition [1],growth inhibition [2],growth inhibition [3]
"Cn1c(=O)c2[nH]c(C3CCCC3)nc2n(C)c1=O [8-Cyclopentyl-1,3-dimethylxanthine]",21.1%,27.1%,54.5%
O=C(Nc1ccc2[nH]ncc2c1)C1CCC1 [Rhodblock 6],29.4%,38.2%,54.4%
"C=CCn1c(=O)c2c(nc(-c3ccc(S(=O)(=O)O)cc3)n2C)n(C)c1=O [1-Allyl-3,7-dimethyl-8-p-sulfophenylxanthine]",12.1%,7.23%,36.4%
CN(C(=O)CCCOc1ccc2[nH]c(=O)ccc2c1)C1CCCCC1 [Cilostamide],48%,49.2%,56.3%
Nc1nc2c(ncn2[C@@H]2O[C@H](CO)[C@@H](O)[C@@H]2O)c(=O)[nH]1 [Ara-G hydrate],56.9%,49.2%,70.5%
CCc1ccc2c(-c3cccc(Cl)c3)nc(=O)n(CC)c2n1,64.1%,49.1%,59%
Cn1cnc2c1c(=O)[nH]c(=O)n2C [Theobromine],55.2%,50.9%,63.7%
N=C(N)NC(=O)c1nc(Cl)c(N)nc1N [Amiloride hydrochloride],38.8%,40.7%,56.4%
Clc1ccc(C(c2ccc(Cl)cc2)[n+]2ccn(CC(OCc3ccc(Cl)cc3Cl)c3ccc(Cl)cc3Cl)c2)cc1 (stereo not given) [Calmidazolium chloride],79.2%,78.5%,77.1%
Cc1cc(NC2CCCCC2)nc(-n2nc(C)cc2C)n1,32.5%,33.1%,61.7%
Nc1ccc(S(=O)(=O)Nc2ccnn2-c2ccccc2)cc1 [Sulfaphenazole],43.4%,38.7%,66.6%
Brc1c(NC2=NCCN2)ccc2nccnc12,48.7%,52.6%,74.9%
CCCOc1ccccc1-c1nc2[nH]nnc2c(=O)[nH]1 [Zaprinast],46.5%,44.7%,72.8%

# Continuation:

Compound,general growth inhibition [1],growth inhibition [2],growth inhibition [3]
CCN(CC)CCNC(=O)c1ccc(NS(C)(=O)=O)cc1 [Sematilide monohydrochloride monohydrate],36.6%,37.6%,59%
Cc1nc2ccccn2c(=O)c1CCN1CCC(C(=O)c2ccc(F)cc2)CC1 [Pirenperone],42.3%,32.1%,67.1%
O=C(NOC[C@H](O)CO)c1ccc(F)c(F)c1Nc1ccc(I)cc1F,33.5%,42.2%,52%
N=c1ccn2c(n1)O[C@H]1[C@H](O)[C@@H](CO)O[C@H]12 [Ancitabine hydrochloride],38.2%,39.3%,47.4%
CC1c2cccc(O)c2C(O)=C2C(=O)C3(O)C(O)=C(C(N)=O)C(=O)C(N(C)C)C3C(O)C21 (stereo not given) [Doxycycline hydrochloride],3.19%,-15.8%,24.6%
"Nc1ncnc2c1ncn2[C@@H]1O[C@H](COP(=O)(O)CP(=O)(O)OP(=O)(O)O)[C@H](O)C1O (stereo partly drawn) [alpha,beta-Methylene adenosine 5'-triphosphate dilithium]",55.1%,47.6%,66.5%
COc1ccccc1N1CCN(CCN(C(=O)c2ccc(F)cc2)c2ccccn2)CC1 [p-MPPF dihydrochloride],47.5%,43.9%,65.4%
O=C(O)CCCCC1CCSS1 (racemic) [(±)-alpha-Lipoic Acid],34.5%,40.2%,61.3%
COc1cccc(OC)c1-c1cc(C(=O)NC2(C(=O)O)C3CC4CC(C3)CC2C4)nn1-c1ccc(C(=O)N(C)CCCN(C)C)cc1C(C)C (stereo not given),27.1%,9.05%,27.7%
COc1cc2nc(N(C)CCCNC(=O)C3CCCO3)nc(N)c2cc1OC (stereo not given) [Alfuzosin hydrochloride],35.1%,32.5%,42.5%
"NC(N)=NC(=O)c1nc(Cl)c(N2CCCCCC2)nc1N [5-(N,N-hexamethylene)amiloride]",41.2%,35.7%,56.9%
N[C@@H](CCCC(=O)O)C(=O)O [L-2-aminoadipic acid],48.7%,41.9%,51.5%
Cc1nc2sccn2c(=O)c1CCN1CCC(=C(c2ccc(F)cc2)c2ccc(F)cc2)CC1 [Ritanserin],30.1%,25.3%,61.8%
CN(C)S(=O)(=O)c1ccc2c(c1)/C(=C/c1cc3c([nH]1)CCCC3)C(=O)N2,50.1%,33.8%,53.2%
CNCCNS(=O)(=O)c1cccc2cnccc12 [H-8 dihydrochloride],47.7%,41.3%,61%
CC(C)NC[C@H](O)COc1cccc2ccccc12 [(S)-Propranolol hydrochloride],49.3%,42.6%,51.5%
O=C1NC(=O)C(c2ccccc2[N+](=O)[O-])=C1Nc1ccc(O)c(Cl)c1,20.5%,19.5%,42.9%
COc1cc(Cc2cnc(N)nc2N)cc(OC)c1OC [Trimethoprim],16.6%,7.63%,39.5%
O=C(O)CCCCCCCC(=O)O [Azelaic acid],26.3%,34.9%,49.4%
Oc1ccc(/C=C/c2cc(O)cc(O)c2)cc1 [Resveratrol],45%,42.8%,60.1%
Oc1ccc(-c2nc(-c3ccc(F)cc3)c(-c3ccncc3)[nH]2)cc1,39.9%,36.5%,55.2%
NCCCNCCCCNCCCN [Spermine tetrahydrochloride],50.7%,43.2%,70.5%

# Taken from above.
# C=CCN1CCc2c(cc(O)c(O)c2Cl)C(c2ccccc2)C1 (racemic) [(±)-Chloro-APB hydrobromide] – growth inhibition [2]: 22.1%
# O=C1NC(=O)C(c2ccccc2[N+](=O)[O-])=C1Nc1ccc(O)c(Cl)c1 – growth inhibition [2]: 19.5%

# Going on with the list.

Compound,general growth inhibition [1],growth inhibition [2],growth inhibition [3]
CN1CC(O)C(O)C(O)C1CO (stereo not given) [N-Methyl-1-deoxynojirimycin],35.8%,50%,66.6%
O=C1NC(=O)/C(=C/c2ccc(-c3ccc(F)cc3O)o2)S1,16.3%,5.56%,33.9%
O=C(/C=C/c1ccc(O)c(O)c1)OCCc1ccccc1 [Caffeic acid phenethyl ester],89.7%,87%,83.3%
Nc1nc2c(ncn2COC(CO)CO)c(=O)[nH]1 [Ganciclovir],25.5%,35.6%,58.5%
CCc1cccc(N(C)C(=N)Nc2cccc3ccccc23)c1,9.25%,5.16%,26.2%
"Nc1ccn([C@H]2CC[C@@H](CO)O2)c(=O)n1 [2',3'-dideoxycytidine]",41.3%,44.7%,65.1%
CCN(CC)CCOCCOC(=O)C1(c2ccccc2)CCCC1 [Carbetapentane citrate],6.8%,1.43%,23.1%
N[C@@H](Cc1c[nH]c2ccccc12)C(=O)O [L-Tryptophan],50.4%,45.5%,62.9%
COC(=O)C(C)(N)Cc1ccc(O)cc1 (racemic) [alpha-Methyl-DL-tyrosine methyl ester hydrochloride],41.6%,49%,60.5%
O=C1c2c(O)cc(O)cc2O[C@H](c2ccc(O)c(O)c2)[C@H]1O (racemic) [(±)-Taxifolin],11.8%,11.8%,43.1%
NC1C=CC=C(C(=O)O)C1 (stereo not given) [Gabaculine hydrochloride],17.7%,13.2%,37.5%
CC(C)(C)[C@]1(O)CCN2C[C@H]3c4ccccc4CCc4cccc(c43)[C@@H]2C1 [(+)-Butaclamol hydrochloride],23.8%,16.1%,50.5%
CCN(c1nc(N)c(C(=O)NC(=N)N)nc1Cl)C(C)C [5-(N-Ethyl-N-isopropyl)amiloride],31.6%,26.4%,52.1%
Cc1cn([C@H]2C[C@H](N=[N+]=[N-])[C@@H](CO)O2)c(=O)[nH]c1=O [3'-Azido-3'-deoxythymidine],39.2%,36.8%,59.5%
CCn1nc(C(=O)O)c(=O)c2cc3c(cc21)OCO3 [Cinoxacin],60.1%,33.5%,63.4%
"CCCn1c(=O)c2[nH]c(C3CCCC3)nc2n(CCC)c1=O [8-Cyclopentyl-1,3-dipropylxanthine]",22.8%,22.5%,39.4%
CC(=O)OCC(=O)[C@@]1(O)CC[C@H]2[C@@H]3CCC4=CC(=O)CC[C@]4(C)[C@H]3C(=O)C[C@@]21C [Cortisone 21-acetate],40%,43.8%,50%
CC(=O)Oc1ccccc1C(=O)O [Acetylsalicylic acid],39.6%,48.1%,65%
"CN(C)C(=O)N=NC(=O)N(C)C [N,N,N',N'-Tetramethylazodicarboxamide]",24%,29.9%,44.4%
NCCCCN [Putrescine dihydrochloride],47.2%,46.9%,62.5%
O=C1CCC(c2ccc(-n3ccnc3)cc2)=NN1 [Imazodan],4.94%,7.94%,37.9%

# — the supplement of paper PMC8326762, “A Small Molecule Inhibitor of Pex3–Pex19 Interaction Disrupts Glycosome Biogenesis and Causes Lethality in Trypanosoma brucei” (Frontiers in Cell and Developmental Biology, 2021)
